Measurements reported in paper PMC8298100.
These are yes or no findings as the source states them, for the method shown. Binding seen in cells or lysates may run through a third protein. Some results given as binding are weak or reduced against the parent protein; the word gives no strength. For part of these data: Sequences can lack the tags named with a protein.

Sequences of proteins named here, by UniProt entry; tags and fusion partners are left off. A change or cut given only in a name is not applied to a line headed by its entry.
UniProt O43399: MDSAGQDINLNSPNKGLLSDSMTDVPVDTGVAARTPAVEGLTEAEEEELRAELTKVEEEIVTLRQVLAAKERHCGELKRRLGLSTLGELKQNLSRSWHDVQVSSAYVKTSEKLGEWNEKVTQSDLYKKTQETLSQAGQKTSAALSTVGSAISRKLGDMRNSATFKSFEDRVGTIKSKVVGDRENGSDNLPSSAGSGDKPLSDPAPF

Key:
Assay in all cases: co-IP; FLAG-TPD52, FLAG-TPD53 or FLAG-TPD54 coexpressed in HeLa with GFP-FKBP constructs; lysis in 10 mM Tris pH 7.5, 150 mM NaCl, 0.5 mM EDTA, 1% Triton X-100; anti-FLAG M2 magnetic beads 2 h at 4°C; Western blot with anti-GFP
FLAG-TPD53 (human) = biological target: T1, FLAG-TPD53 (human) (UniProt Q16890)
T1 sequence: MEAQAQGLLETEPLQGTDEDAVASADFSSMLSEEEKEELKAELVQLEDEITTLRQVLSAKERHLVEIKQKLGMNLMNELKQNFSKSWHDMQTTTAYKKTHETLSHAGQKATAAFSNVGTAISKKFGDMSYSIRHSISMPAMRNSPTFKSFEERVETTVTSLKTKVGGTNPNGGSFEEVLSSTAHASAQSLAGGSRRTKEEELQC

FLAG-TPD52 (human) = biological target: T2, FLAG-TPD52 (human) (UniProt P55327)
T2 sequence: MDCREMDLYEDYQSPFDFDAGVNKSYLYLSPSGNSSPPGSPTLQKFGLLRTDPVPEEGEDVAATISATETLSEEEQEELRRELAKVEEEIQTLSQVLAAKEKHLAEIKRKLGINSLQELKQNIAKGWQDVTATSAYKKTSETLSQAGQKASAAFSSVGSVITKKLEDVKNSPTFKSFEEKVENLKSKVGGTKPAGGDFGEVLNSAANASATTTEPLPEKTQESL

FLAG-TPD54 (human) = FLAG-TPD54 (human) (UniProt O43399)

Measured: binding

GFP-FKBP-TPD54 (from UniProt O43399-1 1-206)
binds: all assays above
